The record followed here is article doi:10.1101/679803.

No constants are given. Whether binding was seen depends on the method and setting. In cells and extracts the contact can be indirect. Binding calls can cover weak binding; strength is not graded here.

The target of the test is inceptin receptor INR-Vu (Vigun07g219600) (cowpea (Vigna unguiculata)). The test can be described thus: co-IP.

B1: AtSERK3 (receptor, UniProt Q94F62 26-615)
chain: NAEGDALSALKNSLADPNKVLQSWDATLVTPCTWFHVTCNSDNSVTRVDLGNANLSGQLVMQLGQLPNLQYLELYSNNITGTIPEQLGNLTELVSLDLYLNNLSGPIPSTLGRLKKLRFLRLNNNSLSGEIPRSLTAVLTLQVLDLSNNPLTGDIPVNGSFSLFTPISFANTKLTPLPASPPPPISPTPPSPAGSNRITGAIAGGVAAGAALLFAVPAIALAWWRRKKPQDHFFDVPAEEDPEVHLGQLKRFSLRELQVASDNFSNKNILGRGGFGKVYKGRLADGTLVAVKRLKEERTQGGELQFQTEVEMISMAVHRNLLRLRGFCMTPTERLLVYPYMANGSVASCLRERPESQPPLDWPKRQRIALGSARGLAYLHDHCDPKIIHRDVKAANILLDEEFEAVVGDFGLAKLMDYKDTHVTTAVRGTIGHIAPEYLSTGKSSEKTDVFGYGVMLLELITGQRAFDLARLANDDDVMLLDWVKGLLKEKKLEALVDVDLQGNYKDEEVEQLIQVALLCTQSSPMERPKMSEVVRMLEGDGLAERWEEWQKEEMFRQDFNYPTHHPAVSGWIIGDSTSQIENEYPSGPR
For B1, the binding entry is on record as “binds”.

B2: AtSERK4 (receptor, UniProt Q9SKG5 34-620)
chain: DALTQLKNSLSSGDPANNVLQSWDATLVTPCTWFHVTCNPENKVTRVDLGNAKLSGKLVPELGQLLNLQYLELYSNNITGEIPEELGDLVELVSLDLYANSISGPIPSSLGKLGKLRFLRLNNNSLSGEIPMTLTSVQLQVLDISNNRLSGDIPVNGSFSLFTPISFANNSLTDLPEPPPTSTSPTPPPPSGGQMTAAIAGGVAAGAALLFAVPAIAFAWWLRRKPQDHFFDVPAEEDPEVHLGQLKRFTLRELLVATDNFSNKNVLGRGGFGKVYKGRLADGNLVAVKRLKEERTKGGELQFQTEVEMISMAVHRNLLRLRGFCMTPTERLLVYPYMANGSVASCLRERPEGNPALDWPKRKHIALGSARGLAYLHDHCDQKIIHRDVKAANILLDEEFEAVVGDFGLAKLMNYNDSHVTTAVRGTIGHIAPEYLSTGKSSEKTDVFGYGVMLLELITGQKAFDLARLANDDDIMLLDWVKEVLKEKKLESLVDAELEGKYVETEVEQLIQMALLCTQSSAMERPKMSEVVRMLEGDGLAERWEEWQKEEMPIHDFNYQAYPHAGTDWLIPYSNSLIENDYPSGPR
In the case of B2, the binding result is reported as “binds”.

B3: AtSERK2 (receptor, UniProt Q9XIC7 30-628)
chain: NMEGDALHSLRANLVDPNNVLQSWDPTLVNPCTWFHVTCNNENSVIRVDLGNADLSGQLVPQLGQLKNLQYLELYSNNITGPVPSDLGNLTNLVSLDLYLNSFTGPIPDSLGKLFKLRFLRLNNNSLTGPIPMSLTNIMTLQVLDLSNNRLSGSVPDNGSFSLFTPISFANNLDLCGPVTSRPCPGSPPFSPPPPFIPPPIVPTPGGYSATGAIAGGVAAGAALLFAAPALAFAWWRRRKPQEFFFDVPAEEDPEVHLGQLKRFSLRELQVATDSFSNKNILGRGGFGKVYKGRLADGTLVAVKRLKEERTPGGELQFQTEVEMISMAVHRNLLRLRGFCMTPTERLLVYPYMANGSVASCLRERPPSQLPLAWSIRQQIALGSARGLSYLHDHCDPKIIHRDVKAANILLDEEFEAVVGDFGLARLMDYKDTHVTTAVRGTIGHIAPEYLSTGKSSEKTDVFGYGIMLLELITGQRAFDLARLANDDDVMLLDWVKGLLKEKKLEMLVDPDLQSNYTEAEVEQLIQVALLCTQSSPMERPKMSEVVRMLEGDGLAEKWDEWQKVEVLRQEVELSSHPTSDWILDSTDNLHAMELSGPR
In the case of B3, the binding entry was “binds”.

B4: AtSERK1 (receptor, UniProt Q94AG2 27-625)
chain: NLEGDALHTLRVTLVDPNNVLQSWDPTLVNPCTWFHVTCNNENSVIRVDLGNAELSGHLVPELGVLKNLQYLELYSNNITGPIPSNLGNLTNLVSLDLYLNSFSGPIPESLGKLSKLRFLRLNNNSLTGSIPMSLTNITTLQVLDLSNNRLSGSVPDNGSFSLFTPISFANNLDLCGPVTSHPCPGSPPFSPPPPFIQPPPVSTPSGYGITGAIAGGVAAGAALLFAAPAIAFAWWRRRKPLDIFFDVPAEEDPEVHLGQLKRFSLRELQVASDGFSNKNILGRGGFGKVYKGRLADGTLVAVKRLKEERTPGGELQFQTEVEMISMAVHRNLLRLRGFCMTPTERLLVYPYMANGSVASCLRERPPSQPPLDWPTRKRIALGSARGLSYLHDHCDPKIIHRDVKAANILLDEEFEAVVGDFGLAKLMDYKDTHVTTAVRGTIGHIAPEYLSTGKSSEKTDVFGYGIMLLELITGQRAFDLARLANDDDVMLLDWVKGLLKEKKLEMLVDPDLQTNYEERELEQVIQVALLCTQGSPMERPKMSEVVRMLEGDGLAEKWDEWQKVEILREEIDLSPNPNSDWILDSTYNLHAVELSGPR
B4: the binding result is recorded as “binds”.
